# Results are given in words; binding and its absence hold for the method and conditions named. Binding seen in cells or lysates may run through a third protein. These calls come from enrichment with a bait or labelling near it, and not all partners need be listed.
# Chains of the proteins cited; added tags and fusions are not shown. Residues count along the entry.
# UniProt P49336: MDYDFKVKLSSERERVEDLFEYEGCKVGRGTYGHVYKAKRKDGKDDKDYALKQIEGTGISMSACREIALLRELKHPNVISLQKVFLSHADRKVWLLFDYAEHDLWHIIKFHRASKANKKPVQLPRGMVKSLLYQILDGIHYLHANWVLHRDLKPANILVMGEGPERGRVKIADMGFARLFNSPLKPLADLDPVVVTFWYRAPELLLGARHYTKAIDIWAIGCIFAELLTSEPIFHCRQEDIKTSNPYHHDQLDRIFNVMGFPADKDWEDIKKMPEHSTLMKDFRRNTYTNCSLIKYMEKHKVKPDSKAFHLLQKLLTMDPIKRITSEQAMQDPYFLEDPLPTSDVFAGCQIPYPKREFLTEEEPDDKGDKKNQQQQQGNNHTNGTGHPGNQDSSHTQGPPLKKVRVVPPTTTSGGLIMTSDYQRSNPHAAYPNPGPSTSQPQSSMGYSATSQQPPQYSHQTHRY
# UniProt Q9UHV7: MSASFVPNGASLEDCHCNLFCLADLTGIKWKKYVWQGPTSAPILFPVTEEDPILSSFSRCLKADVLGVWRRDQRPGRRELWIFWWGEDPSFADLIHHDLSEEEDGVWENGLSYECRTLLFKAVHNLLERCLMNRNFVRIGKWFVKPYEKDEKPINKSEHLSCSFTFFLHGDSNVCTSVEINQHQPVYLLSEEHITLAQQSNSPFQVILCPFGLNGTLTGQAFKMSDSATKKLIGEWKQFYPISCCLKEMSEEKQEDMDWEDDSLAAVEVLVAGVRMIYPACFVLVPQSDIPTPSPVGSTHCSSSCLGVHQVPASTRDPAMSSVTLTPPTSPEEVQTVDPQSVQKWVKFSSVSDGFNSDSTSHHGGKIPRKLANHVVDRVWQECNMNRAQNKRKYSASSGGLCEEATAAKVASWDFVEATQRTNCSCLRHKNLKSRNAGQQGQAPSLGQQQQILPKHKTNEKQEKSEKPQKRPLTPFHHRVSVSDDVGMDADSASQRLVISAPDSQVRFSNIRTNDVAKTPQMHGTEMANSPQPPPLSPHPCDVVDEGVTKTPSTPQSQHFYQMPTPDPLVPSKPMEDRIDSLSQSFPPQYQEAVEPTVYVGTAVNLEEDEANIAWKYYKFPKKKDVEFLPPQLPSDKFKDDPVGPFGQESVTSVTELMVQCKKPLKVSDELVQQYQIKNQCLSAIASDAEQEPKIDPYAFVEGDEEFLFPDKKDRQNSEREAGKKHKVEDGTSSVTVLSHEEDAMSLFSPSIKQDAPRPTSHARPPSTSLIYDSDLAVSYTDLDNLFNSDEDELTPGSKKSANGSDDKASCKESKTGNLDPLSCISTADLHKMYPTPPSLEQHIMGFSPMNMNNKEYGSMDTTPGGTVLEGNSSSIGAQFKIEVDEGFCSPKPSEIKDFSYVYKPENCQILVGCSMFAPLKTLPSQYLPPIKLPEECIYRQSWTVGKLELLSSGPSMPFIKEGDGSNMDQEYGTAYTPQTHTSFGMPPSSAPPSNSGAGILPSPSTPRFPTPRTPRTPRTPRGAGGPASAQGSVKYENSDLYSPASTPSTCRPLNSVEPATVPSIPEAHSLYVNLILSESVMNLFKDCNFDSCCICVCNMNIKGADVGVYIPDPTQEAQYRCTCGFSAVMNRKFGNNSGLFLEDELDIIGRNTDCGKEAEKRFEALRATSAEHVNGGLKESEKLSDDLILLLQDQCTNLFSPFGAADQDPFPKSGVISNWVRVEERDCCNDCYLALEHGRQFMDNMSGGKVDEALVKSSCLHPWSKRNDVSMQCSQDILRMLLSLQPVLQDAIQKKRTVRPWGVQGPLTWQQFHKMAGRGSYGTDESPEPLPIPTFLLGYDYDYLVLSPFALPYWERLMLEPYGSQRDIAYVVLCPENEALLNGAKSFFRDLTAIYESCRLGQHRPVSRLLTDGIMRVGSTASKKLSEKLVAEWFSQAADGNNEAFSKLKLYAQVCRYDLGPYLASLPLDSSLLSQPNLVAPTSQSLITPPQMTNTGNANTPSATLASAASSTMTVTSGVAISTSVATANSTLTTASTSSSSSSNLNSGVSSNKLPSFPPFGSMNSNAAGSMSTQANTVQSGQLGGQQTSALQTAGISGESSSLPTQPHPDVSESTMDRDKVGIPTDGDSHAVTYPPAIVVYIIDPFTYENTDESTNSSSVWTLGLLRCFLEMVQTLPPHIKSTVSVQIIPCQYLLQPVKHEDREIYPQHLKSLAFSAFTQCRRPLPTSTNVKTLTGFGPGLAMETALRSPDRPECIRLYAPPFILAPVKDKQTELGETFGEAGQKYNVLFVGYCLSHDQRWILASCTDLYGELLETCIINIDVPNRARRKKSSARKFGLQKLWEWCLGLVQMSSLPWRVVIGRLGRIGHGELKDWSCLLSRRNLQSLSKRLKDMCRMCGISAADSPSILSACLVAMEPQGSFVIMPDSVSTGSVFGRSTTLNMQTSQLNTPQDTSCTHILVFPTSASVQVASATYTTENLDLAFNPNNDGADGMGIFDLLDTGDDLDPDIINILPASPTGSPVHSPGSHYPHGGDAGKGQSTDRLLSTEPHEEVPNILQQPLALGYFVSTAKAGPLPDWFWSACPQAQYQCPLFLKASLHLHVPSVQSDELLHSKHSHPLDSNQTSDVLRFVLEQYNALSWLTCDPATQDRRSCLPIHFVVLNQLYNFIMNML
# UniProt P02545, residues 1-646: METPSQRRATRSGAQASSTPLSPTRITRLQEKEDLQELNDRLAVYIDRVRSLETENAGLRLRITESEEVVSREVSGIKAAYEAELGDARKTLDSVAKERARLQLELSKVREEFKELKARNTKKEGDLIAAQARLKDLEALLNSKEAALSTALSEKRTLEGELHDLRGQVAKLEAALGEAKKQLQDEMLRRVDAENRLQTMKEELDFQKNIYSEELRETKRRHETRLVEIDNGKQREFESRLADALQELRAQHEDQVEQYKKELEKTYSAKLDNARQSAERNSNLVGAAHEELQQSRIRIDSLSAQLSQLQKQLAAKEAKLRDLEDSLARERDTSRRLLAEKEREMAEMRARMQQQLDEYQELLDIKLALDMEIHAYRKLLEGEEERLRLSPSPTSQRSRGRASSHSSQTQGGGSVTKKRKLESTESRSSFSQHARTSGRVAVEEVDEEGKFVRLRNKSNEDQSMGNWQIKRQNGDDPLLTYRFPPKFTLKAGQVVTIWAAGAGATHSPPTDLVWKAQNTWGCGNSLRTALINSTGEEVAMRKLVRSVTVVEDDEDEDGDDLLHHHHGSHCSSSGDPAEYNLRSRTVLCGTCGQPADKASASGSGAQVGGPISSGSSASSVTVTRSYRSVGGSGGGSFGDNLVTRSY
# UniProt Q15648: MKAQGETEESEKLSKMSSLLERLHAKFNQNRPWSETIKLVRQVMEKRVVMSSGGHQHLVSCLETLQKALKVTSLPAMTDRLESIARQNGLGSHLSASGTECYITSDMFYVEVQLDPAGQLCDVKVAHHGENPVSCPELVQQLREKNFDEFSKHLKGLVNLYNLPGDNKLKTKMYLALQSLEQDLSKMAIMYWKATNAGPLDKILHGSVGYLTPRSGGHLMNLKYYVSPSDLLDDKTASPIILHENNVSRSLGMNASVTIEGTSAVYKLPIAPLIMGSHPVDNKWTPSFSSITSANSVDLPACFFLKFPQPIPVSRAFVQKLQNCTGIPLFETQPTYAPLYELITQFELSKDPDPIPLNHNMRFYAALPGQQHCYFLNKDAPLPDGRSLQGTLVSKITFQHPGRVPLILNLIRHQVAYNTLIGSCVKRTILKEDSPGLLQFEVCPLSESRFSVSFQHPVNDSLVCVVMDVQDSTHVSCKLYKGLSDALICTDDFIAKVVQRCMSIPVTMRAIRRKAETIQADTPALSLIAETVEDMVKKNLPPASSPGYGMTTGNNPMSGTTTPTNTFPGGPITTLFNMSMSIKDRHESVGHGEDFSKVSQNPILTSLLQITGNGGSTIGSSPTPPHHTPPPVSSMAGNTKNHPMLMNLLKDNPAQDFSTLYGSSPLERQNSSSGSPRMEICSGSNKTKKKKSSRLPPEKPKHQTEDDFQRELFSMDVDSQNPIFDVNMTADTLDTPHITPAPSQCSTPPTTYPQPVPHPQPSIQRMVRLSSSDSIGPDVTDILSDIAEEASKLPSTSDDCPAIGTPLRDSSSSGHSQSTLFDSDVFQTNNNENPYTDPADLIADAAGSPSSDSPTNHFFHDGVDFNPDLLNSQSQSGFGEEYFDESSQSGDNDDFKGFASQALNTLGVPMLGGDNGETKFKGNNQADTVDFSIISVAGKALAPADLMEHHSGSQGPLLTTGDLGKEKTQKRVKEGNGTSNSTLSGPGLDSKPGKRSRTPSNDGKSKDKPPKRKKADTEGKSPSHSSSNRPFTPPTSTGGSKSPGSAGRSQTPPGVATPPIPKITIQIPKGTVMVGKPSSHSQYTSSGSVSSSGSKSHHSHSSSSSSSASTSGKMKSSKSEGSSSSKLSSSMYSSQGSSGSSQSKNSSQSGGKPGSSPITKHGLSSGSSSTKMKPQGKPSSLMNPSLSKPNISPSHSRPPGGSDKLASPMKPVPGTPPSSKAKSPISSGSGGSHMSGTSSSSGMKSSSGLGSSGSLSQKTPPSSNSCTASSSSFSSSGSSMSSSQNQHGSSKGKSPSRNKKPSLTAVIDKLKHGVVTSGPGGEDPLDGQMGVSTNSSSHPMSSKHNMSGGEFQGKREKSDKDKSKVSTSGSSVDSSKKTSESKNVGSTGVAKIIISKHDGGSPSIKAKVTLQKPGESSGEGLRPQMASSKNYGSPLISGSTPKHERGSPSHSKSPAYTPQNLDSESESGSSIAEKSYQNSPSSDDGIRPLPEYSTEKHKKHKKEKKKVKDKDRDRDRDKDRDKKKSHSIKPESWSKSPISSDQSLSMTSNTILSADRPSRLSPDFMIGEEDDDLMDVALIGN
# UniProt O60244: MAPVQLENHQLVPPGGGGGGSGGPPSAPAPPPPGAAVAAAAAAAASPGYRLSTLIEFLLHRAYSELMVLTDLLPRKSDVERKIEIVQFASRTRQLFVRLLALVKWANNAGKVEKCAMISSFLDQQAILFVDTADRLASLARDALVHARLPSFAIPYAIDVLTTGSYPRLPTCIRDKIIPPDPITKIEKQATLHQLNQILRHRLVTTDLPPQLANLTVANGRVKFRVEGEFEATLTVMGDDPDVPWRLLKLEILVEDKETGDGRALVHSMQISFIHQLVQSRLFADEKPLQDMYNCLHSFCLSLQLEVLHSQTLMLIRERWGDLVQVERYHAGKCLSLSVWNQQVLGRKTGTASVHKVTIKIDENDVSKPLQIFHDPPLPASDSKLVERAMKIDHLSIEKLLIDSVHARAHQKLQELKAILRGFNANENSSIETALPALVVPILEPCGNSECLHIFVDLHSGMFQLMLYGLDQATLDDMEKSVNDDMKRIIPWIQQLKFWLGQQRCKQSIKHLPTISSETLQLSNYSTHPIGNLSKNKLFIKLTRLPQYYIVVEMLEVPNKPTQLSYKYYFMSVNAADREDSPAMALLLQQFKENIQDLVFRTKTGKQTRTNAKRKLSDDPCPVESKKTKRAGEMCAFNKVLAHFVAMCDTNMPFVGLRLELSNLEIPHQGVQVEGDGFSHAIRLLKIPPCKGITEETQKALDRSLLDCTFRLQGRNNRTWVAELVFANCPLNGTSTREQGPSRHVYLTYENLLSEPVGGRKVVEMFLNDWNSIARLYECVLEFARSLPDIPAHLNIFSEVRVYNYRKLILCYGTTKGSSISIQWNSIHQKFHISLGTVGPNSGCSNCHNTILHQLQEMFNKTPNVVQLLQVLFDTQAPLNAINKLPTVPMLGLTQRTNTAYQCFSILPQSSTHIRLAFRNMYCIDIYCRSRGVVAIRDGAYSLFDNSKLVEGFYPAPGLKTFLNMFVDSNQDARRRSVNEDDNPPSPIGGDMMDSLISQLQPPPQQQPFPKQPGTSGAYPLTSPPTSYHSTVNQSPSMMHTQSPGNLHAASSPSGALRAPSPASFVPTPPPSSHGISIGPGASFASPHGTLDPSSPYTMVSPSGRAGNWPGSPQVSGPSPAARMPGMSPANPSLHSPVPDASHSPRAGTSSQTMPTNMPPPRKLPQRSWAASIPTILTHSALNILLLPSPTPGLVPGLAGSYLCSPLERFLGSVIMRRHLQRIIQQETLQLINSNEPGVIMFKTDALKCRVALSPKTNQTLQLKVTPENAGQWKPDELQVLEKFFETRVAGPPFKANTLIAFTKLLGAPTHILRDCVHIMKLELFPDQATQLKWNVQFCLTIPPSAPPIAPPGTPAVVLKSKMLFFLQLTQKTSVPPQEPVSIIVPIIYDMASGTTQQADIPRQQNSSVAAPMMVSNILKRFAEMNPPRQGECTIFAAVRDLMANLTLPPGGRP
# B1: MED27 (protein, UniProt Q6P2C8 1-311)
# chain: MADVINVSVNLEAFSQAISAIQALRSSVSRVFDCLKDGMRNKETLEGREKAFIAHFQDNLHSVNRDLNELERLSNLVGKPSENHPLHNSGLLSLDPVQDKTPLYSQLLQAYKWSNKLQYHAGLASGLLNQQSLKRSANQMGVSAKRRPKAQPTTLVLPPQYVDDVISRIDRMFPEMSIHLSRPNGTSAMLLVTLGKVLKVIVVMRSLFIDRTIVKGYNENVYTEDGKLDIWSKSNYQVFQKVTDHATTALLHYQLPQMPDVVVRSFMTWLRSYIKLFQAPCQRCGKFLQDGLPPTWRDFRTLEAFHDTCRQ
# B2: MED16 (protein, UniProt Q9Y2X0 1-877)
# chain: MCDLRRPAAGGMMDLAYVCEWEKWSKSTHCPSVPLACAWSCRNLIAFTMDLRSDDQDLTRMIHILDTEHPWDLHSIPSEHHEAITCLEWDQSGSRLLSADADGQIKCWSMADHLANSWESSVGSLVEGDPIVALSWLHNGVKLALHVEKSGASSFGEKFSRVKFSPSLTLFGGKPMEGWIAVTVSGLVTVSLLKPSGQVLTSTESLCRLRGRVALADIAFTGGGNIVVATADGSSASPVQFYKVCVSVVSEKCRIDTEILPSLFMRCTTDLNRKDKFPAITHLKFLARDMSEQVLLCASSQTSSIVECWSLRKEGLPVNNIFQQISPVVGDKQPTILKWRILSATNDLDRVSAVALPKLPISLTNTDLKVASDTQFYPGLGLALAFHDGSVHIVHRLSLQTMAVFYSSAAPRPVDEPAMKRPRTAGPAVHLKAMQLSWTSLALVGIDSHGKLSVLRLSPSMGHPLEVGLALRHLLFLLEYCMVTGYDWWDILLHVQPSMVQSLVEKLHEEYTRQTAALQQVLSTRILAMKASLCKLSPCTVTRVCDYHTKLFLIAISSTLKSLLRPHFLNTPDKSPGDRLTEICTKITDVDIDKVMINLKTEEFVLDMNTLQALQQLLQWVGDFVLYLLASLPNQGSLLRPGHSFLRDGTSLGMLRELMVVIRIWGLLKPSCLPVYTATSDTQDSMSLLFRLLTKLWICCRDEGPASEPDEALVDECCLLPSQLLIPSLDWLPASDGLVSRLQPKQPLRLQFGRAPTLPGSAATLQLDGLARAPGQPKIDHLRRLHLGACPTEECKACTRCGCVTMLKSPNRTTAVKQWEQRWIKNCLAVEGRGPDACVTSRASEEAPAFVQLGPQSTHHSPRTPRSLDHLHPEDRP
# B3: MED6 (protein, UniProt O75586 1-246)
# chain: MAAVDIRDNLLGISWVDSSWIPILNSGSVLDYFSERSNPFYDRTCNNEVVKMQRLTLEHLNQMVGIEYILLHAQEPILFIIRKQQRQSPAQVIPLADYYIIAGVIYQAPDLGSVINSRVLTAVHGIQSAFDEAMSYCRYHPSKGYWWHFKDHEEQDKVRPKAKRKEEPSSIFQRQRVDALLLDLRQKFPPKFVQLKPGEKPVPVDQTKKEAEPIPETVKPEEKETTKNVQQTVSAKGPPEKRMRLQ
# B4: MED4 (protein, UniProt Q9NPJ6 1-270)
# chain: MAASSSGEKEKERLGGGLGVAGGNSTRERLLSALEDLEVLSRELIEMLAISRNQKLLQAGEENQVLELLIHRDGEFQELMKLALNQGKIHHEMQVLEKEVEKRDSDIQQLQKQLKEAEQILATAVYQAKEKLKSIEKARKGAISSEEIIKYAHRISASNAVCAPLTWVPGDPRRPYPTDLEMRSGLLGQMNNPSTNGVNGHLPGDALAAGRLPDVLAPQYPWQSNDMSMNMLPPNHSSDFLLEPPGHNKENEDDVEIMSTDSSSSSSESD
# B5: NUP37 (protein, UniProt Q8NFH4 1-326)
# chain: MKQDASRNAAYTVDCEDYVHVVEFNPFENGDSGNLIAYGGNNYVVIGTCTFQEEEADVEGIQYKTLRTFHHGVRVDGIAWSPETRLDSLPPVIKFCTSAADMKIRLFTSDLQDKNEYKVLEGHTDFINGLVFDPKEGQEIASVSDDHTCRIWNLEGVQTAHFVLHSPGMSVCWHPEETFKLMVAEKNGTIRFYDLLAQQAILSLESEQVPLMSAHWCLKNTFKVGAVAGNDWLIWDITRSSYPQNKRPVHMDRACLFRWSTISENLFATTGYPGKMASQFQIHHLGHPQPILMGSVAVGSGLSWHRTLPLCVIGGDHKLLFWVTEV
# B6: NUP43 (protein, UniProt Q8NFH3 1-380)
# chain: MEEIYAKFVSQKISKTRWRPLPPGSLQTAETFATGSWDNEENYISLWSIGDFGNLDSDGGFEGDHQLLCDIRHHGDVMDLQFFDQERIVAASSTGCVTVFLHHPNNQTLSVNQQWTTAHYHTGPGSPSYSSAPCTGVVCNNPEIVTVGEDGRINLFRADHKEAVRTIDNADSSTLHAVTFLRTPEILTVNSIGQLKIWDFRQQGNEPSQILSLTGDRVPLHCVDRHPNQQHVVATGGQDGMLSIWDVRQGTMPVSLLKAHEAEMWEVHFHPSNPEHLFTCSEDGSLWHWDASTDVPEKSSLFHQGGRSSTFLSHSISNQANVHQSVISSWLSTDPAKDRIEITSLLPSRSLSVNTLDVLGPCLVCGTDAEAIYVTRHLFS
# B7: MED24 (protein, UniProt O75448 1-989)
# chain: MKVVNLKQAILQAWKERWSDYQWAINMKKFFPKGATWDILNLADALLEQAMIGPSPNPLILSYLKYAISSQMVSYSSVLTAISKFDDFSRDLCVQALLDIMDMFCDRLSCHGKAEECIGLCRALLSALHWLLRCTAASAERLREGLEAGTPAAGEKQLAMCLQRLEKTLSSTKNRALLHIAKLEEASSWTAIEHSLLKLGEILANLSNPQLRSQAEQCGTLIRSIPTMLSVHAEQMHKTGFPTVHAVILLEGTMNLTGETQSLVEQLTMVKRMQHIPTPLFVLEIWKACFVGLIESPEGTEELKWTAFTFLKIPQVLVKLKKYSHGDKDFTEDVNCAFEFLLKLTPLLDKADQRCNCDCTNFLLQECGKQGLLSEASVNNLMAKRKADREHAPQQKSGENANIQPNIQLILRAEPTVTNILKTMDADHSKSPEGLLGVLGHMLSGKSLDLLLAAAAATGKLKSFARKFINLNEFTTYGSEESTKPASVRALLFDISFLMLCHVAQTYGSEVILSESRTGAEVPFFETWMQTCMPEEGKILNPDHPCFRPDSTKVESLVALLNNSSEMKLVQMKWHEACLSISAAILEILNAWENGVLAFESIQKITDNIKGKVCSLAVCAVAWLVAHVRMLGLDEREKSLQMIRQLAGPLFSENTLQFYNERVVIMNSILERMCADVLQQTATQIKFPSTGVDTMPYWNLLPPKRPIKEVLTDIFAKVLEKGWVDSRSIHIFDTLLHMGGVYWFCNNLIKELLKETRKEHTLRAVELLYSIFCLDMQQVTLVLLGHILPGLLTDSSKWHSLMDPPGTALAKLAVWCALSSYSSHKGQASTRQKKRHREDIEDYISLFPLDDVQPSKLMRLLSSNEDDANILSSPTDRSMSSSLSASQLHTVNMRDPLNRVLANLFLLISSILGSRTAGPHTQFVQWFMEECVDCLEQGGRGSVLQFMPFTTVSELVKVSAMSSPKVVLAITDLSLPLGRQVAAKAIAAL
# Tests used:
# [1] = biological target: cyclin-dependent kinase (CDK) 8 (human) (UniProt P49336); assay: affinity purification with mass spectrometry + proximity labelling; bait-normalised prey PSM values of AP-MS and of BioID of the same MAC-tagged bait integrated to a relative distance between bait and prey
# [2] = biological target: mediator of RNA polymerase II transcription subunit 13 (human) (UniProt Q9UHV7); assay: as above
# Prelamin-A/C (human) = Prelamin-A/C (human) (UniProt P02545); assay: proximity labelling; BioID: MAC-tagged bait in stable Flp-In T-REx 293 cells, tetracycline and 50 uM biotin 24 h; lysis buffer 2 (as buffer 1 with 0.1% SDS), sonication, benzonase; biotinylated proteins on Strep-Tactin beads; LC-MS; SAINT and CRAPome filter
Molecule,binding [1],binding [2],binding (Prelamin-A/C (human))
MED1 (from UniProt Q15648 1-1581),binds,binds,
MED15 (from UniProt Q96RN5 1-788),binds,binds,
MED14 (from UniProt O60244 1-1454),binds,binds,
B1,binds,binds,
B2,binds,binds,
B3,binds,binds,
B4,binds,binds,
B5,,,binds
B6,,,binds
B7,binds,binds,
